The source of these data is article doi:10.1101/2022.06.13.495990.

Common to all, as to test: affinity purification with mass spectrometry
Assay [1] concerns the target T1, GST-tagged mouse CFAP418 C-terminal bait (169-209 aa) (mouse) (UniProt Q3UJP5).
T1 sequence: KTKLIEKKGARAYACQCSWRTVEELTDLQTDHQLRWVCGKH

For assay [2], the target named is T2, GST-tagged mouse CFAP418 full-length (mouse) (UniProt Q3UJP5).
T2 sequence: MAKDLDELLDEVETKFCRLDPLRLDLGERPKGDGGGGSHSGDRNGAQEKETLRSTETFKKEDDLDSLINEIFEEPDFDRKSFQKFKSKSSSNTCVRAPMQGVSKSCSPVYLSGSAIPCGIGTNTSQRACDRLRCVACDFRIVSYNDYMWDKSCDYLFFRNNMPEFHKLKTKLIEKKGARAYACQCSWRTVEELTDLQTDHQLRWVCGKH

Assay [3] has as its target T3, Cilia- and Flagella-Associated Protein 418 (CFAP418), endogenous in mouse retina (mouse (endogenous in mouse retina)) (UniProt Q3UJP5).
T3 sequence: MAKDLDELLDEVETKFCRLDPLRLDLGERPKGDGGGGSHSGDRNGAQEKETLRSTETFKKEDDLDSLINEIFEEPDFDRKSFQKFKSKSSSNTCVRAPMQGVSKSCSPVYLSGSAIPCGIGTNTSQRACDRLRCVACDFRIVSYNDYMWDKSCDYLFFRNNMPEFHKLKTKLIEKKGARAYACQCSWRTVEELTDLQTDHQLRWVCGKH

Results are given in words; binding and its absence hold for the method and conditions named. Binding seen in cells or lysates may run through a third protein. A yes stands for co-enrichment or nearness to the bait. Other partners may have been found. No binding means not detected with the bait. Where a sequence is shown, tags or fusion partners need not be part of it.

B1: VPS4B, endogenous in bovine retina (protein, UniProt Q0VD48 1-444)
chain: MASTPTNLQKAIDLASKAAQEDKAGNYEEALQLYQHAVQYFLHVVKYEAQGDKAKQSIRAKCTEYLDRAEKLKEYLKKREKKPQKPVKEGQPAPADEKGNDSDGEGESDDPEKKKLQNQLQGAIVIERPNVKWSDVAGLEGAKEALKEAVILPIKFPHLFTGKRTPWRGILLFGPPGTGKSYLAKAVATEANNSTFFSISSSDLVSKWLGESEKLVKNLFQLARENKPSIIFIDEIDSLCGSRSENESEAARRIKTEFLVQMQGVGVDNDGILVLGATNIPWVLDSAIRRRFEKRIYIPLPEAHARAAMFKLHLGTTQNSLTEADFRDLGKKTEGYSGADISIIVRDALMQPVRKVQSATHFKKVRGPSRADPNNIVDDLLTPCSPGDPGAIEMTWMDVPGDKLLEPVVCMSDMLRSLSSTKPTVNEHDLLKLKKFTEDFGQEG
Take B1: the binding entry in assay [1] and in assay [2] was “no binding” in each case.

B2: VPS4B, endogenous in mouse retina (protein, UniProt P46467 1-444)
chain: MASTNTNLQKAIDLASKAAQEDKAGNYEEALQLYQHAVQYFLHVVKYEAQGDKAKQSIRAKCTEYLDRAEKLKEYLKKKEKKPQKPVKEEQSGPVDEKGNDSDGEAESDDPEKKKLQNQLQGAIVIERPNVKWSDVAGLEGAKEALKEAVILPIKFPHLFTGKRTPWRGILLFGPPGTGKSYLAKAVATEANNSTFFSISSSDLVSKWLGESEKLVKNLFQLARENKPSIIFIDEIDSLCGSRSENESEAARRIKTEFLVQMQGVGVDNDGILVLGATNIPWVLDSAIRRRFEKRIYIPLPEAHARAAMFRLHLGSTQNSLTEADFQELGRKTDGYSGADISIIVRDALMQPVRKVQSATHFKKVRGPSRADPNCIVNDLLTPCSPGDPGAIEMTWMDVPGDKLLEPVVSMWDMLRSLSSTKPTVNEQDLLKLKKFTEDFGQEG
Turning to B2, the binding entry in assay [3] is “no binding”.
